Results are given in words; binding and its absence hold for the method and conditions named. Some results given as binding are weak or reduced against the parent protein; the word gives no strength.
What was measured:
amyloid‐β40 (Aβ40) = assay: native MS; ESI–MS; APP-C31 100 µM, Aβ40 100 µM, ZnCl2 100 µM, 20 mM ammonium acetate, pH 7.3, 37 °C, 2 h; diluted tenfold; both purified
[1] = target: uniformly ^15N‐labeled Aβ40; assay: NMR titration; 2D 1H–15N HSQC (900 MHz); 15N-labeled Aβ40 40 µM treated with APP-C31 200 µM; 20 mM HEPES, pH 7.4, 10% D2O; 5 °C; no metal; both purified

B1: APP‐C31 (APP_(665–695)) (peptide)
peptide: AAVTPEERHLSKMQQNGYENPTYKFFEQMQN
For B1, the binding (amyloid‐β40 (Aβ40)) was “binds weakly” and the binding [1] was “binds weakly”.

— PMC10811509, “APP‐C31: An Intracellular Promoter of Both Metal‐Free and Metal‐Bound Amyloid‐β40 Aggregation and Toxicity in Alzheimer's Disease” (Advanced Science, 2023)
